No constants are given. Whether binding was seen depends on the method and setting. Binding seen in cells or lysates may run through a third protein. Some results given as binding are weak or reduced against the parent protein; the word gives no strength.

Chains of the proteins cited; added tags and fusions are not shown.
UniProt Q7Z2H8: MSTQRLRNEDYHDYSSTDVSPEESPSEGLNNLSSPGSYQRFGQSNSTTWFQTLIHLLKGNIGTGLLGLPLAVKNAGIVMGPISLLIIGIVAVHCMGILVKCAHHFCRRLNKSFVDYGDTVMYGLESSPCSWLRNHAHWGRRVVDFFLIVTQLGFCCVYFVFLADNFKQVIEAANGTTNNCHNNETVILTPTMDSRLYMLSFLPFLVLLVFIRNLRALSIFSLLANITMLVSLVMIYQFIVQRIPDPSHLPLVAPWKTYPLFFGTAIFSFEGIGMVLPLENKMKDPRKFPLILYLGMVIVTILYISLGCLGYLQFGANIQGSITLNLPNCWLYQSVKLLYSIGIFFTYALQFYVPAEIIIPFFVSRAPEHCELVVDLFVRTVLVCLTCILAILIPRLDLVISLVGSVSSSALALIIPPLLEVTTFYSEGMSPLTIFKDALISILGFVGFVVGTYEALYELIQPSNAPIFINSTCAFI

For this test, the target named is T1, FLCN (folliculin) (human (endogenous in HEK293)) (UniProt Q8NFG4).
T1 sequence: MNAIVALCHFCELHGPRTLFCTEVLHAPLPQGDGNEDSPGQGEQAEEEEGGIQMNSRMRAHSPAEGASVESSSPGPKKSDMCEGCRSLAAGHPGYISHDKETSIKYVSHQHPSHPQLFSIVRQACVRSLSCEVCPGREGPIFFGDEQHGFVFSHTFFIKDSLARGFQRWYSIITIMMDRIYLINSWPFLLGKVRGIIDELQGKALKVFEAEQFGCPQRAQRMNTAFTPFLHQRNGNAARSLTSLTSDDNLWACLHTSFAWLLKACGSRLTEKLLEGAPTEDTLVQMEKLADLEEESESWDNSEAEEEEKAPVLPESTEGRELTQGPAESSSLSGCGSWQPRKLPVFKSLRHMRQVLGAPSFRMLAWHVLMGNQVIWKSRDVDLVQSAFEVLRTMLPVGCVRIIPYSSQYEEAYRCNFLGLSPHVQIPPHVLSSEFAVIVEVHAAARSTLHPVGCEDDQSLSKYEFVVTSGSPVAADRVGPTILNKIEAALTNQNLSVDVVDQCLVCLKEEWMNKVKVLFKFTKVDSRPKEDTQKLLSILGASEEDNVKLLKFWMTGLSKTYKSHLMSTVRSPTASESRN
Briefly: co-IP; lysate of HEK293 cells stably expressing EGFP-PAT1 (NP40 lysis buffer: 0.5% NP-40, 25 mM Tris, 200 mM NaCl, 200 mM KCl, pH 7.4); immunoprecipitated with anti-GFP polyclonal antibody or anti-FLCN, Protein A/G PLUS-Agarose, 4°C, western blot; both directions; also with or without amino acids (S3 Fig), interaction said not to be affected.

“EGFP-PAT1 fusion protein (Proton-Assisted Amino Acid Transporter 1) (from UniProt Q7Z2H8 1-476)”: the binding entry is “binds”.

For the origin of these results see paper PMC4900541.
